According to the supplement of paper PMC5949888:
Most values lie at the floor of the assay. Slopes are relative: functional sequences can read slightly below zero.

Each substance was assayed on Saccharomyces cerevisiae PS128 hsf1 delta, HSF1(1-493) fusion (assay: growth estimate (transactivation domain function in HSF1 fusion, heat-shock survival) (a.u. (slope of normalised read count over time)); higher = stronger growth at 37°C, i.e. more transactivation activity). Conditions: library: random library.
Protocol: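 Random 60-nt DNA library encoding peptides of up to 20 aa, fused to the C-terminus of yeast HSF1 residues 1-493 (C-terminal TAD deleted) and expressed from the native HSF1 promoter on a CEN plasmid in hsf1-deleted S. cerevisiae PS128. Cells were selected at 37°C on -trp 5-FOA plates for 0, 2, 4, 6 and 8 days and amplicons were sequenced. Growth estimate is the slope of a robust linear fit of total-sum-normalised read counts (normalised to the first time point) over time, using at least 2 replicates. Sequences are classed functional (TAD activity) above a threshold of -0.13, set from stop-codon control sequences.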

| Substance | growth estimate |
| --- | --- |
| TTIADW | < -0.25 |
| PGDLVG | < -0.25 |
| FGRVL | < -0.25 |
| LHMDVTPRRLNGIWAEKWAR | < -0.25 |
| GRATGKFLWIRNEGIWDDVG | < -0.25 |
| GRACLQPKGGDFR | < -0.25 |
| ICDTRPILGQSGDDGQEVGT | < -0.25 |
| YNIAATSPI | < -0.25 |
| TGTPGGFG | < -0.25 |
| MKQSEMIVCKL | < -0.25 |
| VRLKPTKYVDALDPPRYAPL | < -0.25 |
| VIFITDRRSNEGPLGPAGAG | -0.25 |
| QLYTAMLAVCSSIVACDILS | < -0.25 |
| SVLPFLNTGCDLSPA | < -0.25 |
| DQSDVTI | < -0.25 |
| RKTRF | < -0.25 |
| SFPSCSQVLTPRERPGDVAL | < -0.25 |
| DSRIRTDSAVCKTSDETLSL | < -0.25 |
| LKGSGTIFATRSEQEFMITG | < -0.25 |
| ASPLFPACGTPATPNRDTET | < -0.25 |
| SGGWRAVTYISDQLHVDRLS | < -0.25 |
| AAGDCSVRSL | < -0.25 |
| GGQLCDVKAAMGPVRGNLR | < -0.25 |
| APGRQSCPRAVRGT | < -0.25 |

| Substance | growth estimate |
| --- | --- |
| GSLVTMARC | < -0.25 |
| GCMERKSSLGAIGNQVSHGG | < -0.25 |
| RGVVFHESREVC | < -0.25 |
| SMCSWNAQTGSLVLHEVLSR | < -0.25 |
| GDSVTRAVRPVKRPPSGRRP | < -0.25 |
| TRGQHEVPPSEGCGL | < -0.25 |
| LSCFLVNLLSILSKKRKSLL | < -0.25 |
| SSSANRTG | < -0.25 |
| GIAYACVFITAILSAVL | < -0.25 |
| PVIRGLFQVGRQVAVPVRNR | < -0.25 |
| ARSFGLLSWDPTASPCHVTG | < -0.25 |
| KELGEHGAMANLVYKRLTPK | < -0.25 |
| VDIYRRTMFAREITLPELPY | < -0.25 |
| KPS | < -0.25 |
| GGRVRES | -0.245 |
| LVVCRKTVAHTRLNNRLIVI | < -0.25 |
| GLSLIHARGNHGL | < -0.25 |
| WGTACTISRRQASPCRI | < -0.25 |
| WVCPIGTQLCKTRL | < -0.25 |
| AALLHSDHGSRMRRTNER | < -0.25 |
| CYSTSFATRTVSVQWTSWVV | < -0.25 |
| HVWFGPGYGFCG | < -0.25 |
| SEGHPTTSFAEGTEG | < -0.25 |
| RRSSREDYDGGGLNIGSNTR | < -0.25 |

| Substance | growth estimate |
| --- | --- |
| RRTCVQLRFDQTGRGYGAGN | < -0.25 |
| YQA | -0.246 |
| YVCGTVIFVTLQAGSPTRAI | -0.244 |
| YWE | < -0.25 |
| GMFI | < -0.25 |
| GGERFLCMLLFLERTLLLPS | < -0.25 |
| EKGHGNVQDGARGGAYGQWR | < -0.25 |
| IYSIMNWNAG | < -0.25 |
| GYPGPLSRFCS | -0.243 |
| EVRESGAPYVIPRGSR | < -0.25 |
| SGENYSTGPKRFFLALTRFS | < -0.25 |
| SKSHGQGVARLNNISTTS | < -0.25 |
| VLLLVRVGEQGIVPEERTF | < -0.25 |
| WYV | < -0.25 |
| SYGRGPTSETGRLMQSLMS | < -0.25 |
| IVS | < -0.25 |
| MKSDSGNRVLRSRLQYTPYM | < -0.25 |
| ELNND | < -0.25 |
| RKHASNGGSCSYGLDNTMQR | < -0.25 |
| PAFLSLLNLQHENTK | < -0.25 |
| GTGRHGRGLEYGGSDIYYLV | < -0.25 |
| WMGV | < -0.25 |
| TNSAT | < -0.25 |
| IPMDSGRRTRYSW | < -0.25 |

Copied from the list.
PVIRGLFQVGRQVAVPVRNR – growth estimate: < -0.25
GRACLQPKGGDFR – growth estimate: < -0.25
SSSANRTG – growth estimate: < -0.25

Next results follow:

| Substance | growth estimate |
| --- | --- |
| QCKGHRTPTNVGSKFARFCK | < -0.25 |
| ELAAVDVYTINGGNVGRPPL | < -0.25 |
| FCNVSFPGSARRPGLKELDG | < -0.25 |
| ARRGQGAFDSGSSLLN | < -0.25 |
| SRIQLYGLSLHTLAGLRLPR | < -0.25 |
| PRVYV | < -0.25 |
| SFQCRGN | < -0.25 |
| TALRLDRIRLGTRL | < -0.25 |
| KGSYDIATRVLRS | -0.241 |
| SIEMNSMAM | < -0.25 |
| WRFFV | < -0.25 |
| CSLGSMDTERTRRQ | < -0.25 |
| HQAGASGNTAQCGARLTDAG | < -0.25 |
| CHPSSCFSNRRLPCLAMAMR | < -0.25 |
| ISHLVW | < -0.25 |
| RKYGYTTMSFKEY | < -0.25 |
| LRKTL | < -0.25 |
| ASYGTSRRKPSNYSPFASNR | < -0.25 |
| PEGGHTTQLRIVRGLLTGVR | < -0.25 |
| SSVVGETELCGVRVLTPLRS | < -0.25 |
| SGGPASGTTVNARHAMDGLC | < -0.25 |
| DRGSREHVTA | < -0.25 |
| YRLL | < -0.25 |
| PVEI | < -0.25 |

| Substance | growth estimate |
| --- | --- |
| KRMSIYSSRRLSPIGLS | < -0.25 |
| FSWNTGWR | < -0.25 |
| AGLEWMRLSVCAWTKDYRVR | -0.247 |
| PVVAWGQSYHRRYGLLSVGW | < -0.25 |
| GDIVTRRWP | < -0.25 |
| GPGNQVGGIDRTLCTTVGLL | < -0.25 |
| PVF | < -0.25 |
| VLTRND | < -0.25 |
| FMLQSQGKGKGRPGCNYIRL | < -0.25 |
| ASHTLRRLSLESP | < -0.25 |
| NWPSTTCEWLSCLEGSIPIS | < -0.25 |
| WLKGLRIAEHKNMCGHDHWM | < -0.25 |
| LLLNHQVICVPDCSRLAHLI | -0.229 |
| GTTGDGARSGA | < -0.25 |
| AKVKTPK | < -0.25 |
| LYCLIL | < -0.25 |
| TLWESRGVI | < -0.25 |
| GLSPRLTIIQVWYQFCRRDV | < -0.25 |
| CTCFSAVIHER | < -0.25 |
| MLLNLYRHFNFRKQWNLSLV | < -0.25 |
| SDEGQ | < -0.25 |
| SEVFACGD | < -0.25 |
| AIMGPGGLRPSSQAGTDGEP | < -0.25 |
| HPYNLLICPPLNSARILL | < -0.25 |

| Substance | growth estimate |
| --- | --- |
| QRSFAGLPLSRRAEGSRLDA | < -0.25 |
| QYKAYCFPQIKARFSISDVP | < -0.25 |
| SILINGTDFDPSTSSHGNTA | < -0.25 |
| DYCVASALRGGKRGGQISVL | < -0.25 |
| PAKDRKIFGESCGHASSVVL | < -0.25 |
| DDWLIYILRDWPGNKDAHCG | < -0.25 |
| LLSSQV | < -0.25 |
| RRSQSYRVQSEKLALGCRLS | < -0.25 |
| TGSYAQKGTGSSRRVSSDCM | < -0.25 |
| IVLLSACGFIPCGPVPRVEL | < -0.25 |
| VGFLTSRVGNR | < -0.25 |
| PLCKRVDIHALPFNSYPDRT | < -0.25 |
| IPQRRAGANRKERDYIRVVL | < -0.25 |
| PEILCSCLGPKRLATTVLAL | < -0.25 |
| GGLFWDRSACANPGGNTVRQ | < -0.25 |
| RVLFREYPRVNACYPFT | < -0.25 |
| RGDASPHRVVSGLPRVGVRH | < -0.25 |
| SKIVHA | -0.197 |
| SGSLLSSNAILWFGELIATP | < -0.25 |
| TVAFVSLLSHG | < -0.25 |
| YVETG | < -0.25 |
| LVLGRSLVDL | < -0.25 |
| AQSVTERPRGTVLIIAFGKE | < -0.25 |
| PRELAILIVAGPGALCNQYD | < -0.25 |

3 records drawn at random from those above, as already listed:

| Substance | growth estimate |
| --- | --- |
| HPYNLLICPPLNSARILL | < -0.25 |
| HQAGASGNTAQCGARLTDAG | < -0.25 |
| SRIQLYGLSLHTLAGLRLPR | < -0.25 |
